Reference: doi:10.1101/2022.12.23.521717
Results are given in words; binding and its absence hold for the method and conditions named. Binding seen in cells or lysates may run through a third protein. Some binding calls cover weakened binding; strength is not graded here. For part of these data: Tags and fused reporters may be left off the sequences shown.

By UniProt entry, the sequences of proteins in these tests, tags left out. Where a name states a change or a piece, a line headed by the entry shows the natural chain unless it says otherwise.
UniProt O15169, whole entry: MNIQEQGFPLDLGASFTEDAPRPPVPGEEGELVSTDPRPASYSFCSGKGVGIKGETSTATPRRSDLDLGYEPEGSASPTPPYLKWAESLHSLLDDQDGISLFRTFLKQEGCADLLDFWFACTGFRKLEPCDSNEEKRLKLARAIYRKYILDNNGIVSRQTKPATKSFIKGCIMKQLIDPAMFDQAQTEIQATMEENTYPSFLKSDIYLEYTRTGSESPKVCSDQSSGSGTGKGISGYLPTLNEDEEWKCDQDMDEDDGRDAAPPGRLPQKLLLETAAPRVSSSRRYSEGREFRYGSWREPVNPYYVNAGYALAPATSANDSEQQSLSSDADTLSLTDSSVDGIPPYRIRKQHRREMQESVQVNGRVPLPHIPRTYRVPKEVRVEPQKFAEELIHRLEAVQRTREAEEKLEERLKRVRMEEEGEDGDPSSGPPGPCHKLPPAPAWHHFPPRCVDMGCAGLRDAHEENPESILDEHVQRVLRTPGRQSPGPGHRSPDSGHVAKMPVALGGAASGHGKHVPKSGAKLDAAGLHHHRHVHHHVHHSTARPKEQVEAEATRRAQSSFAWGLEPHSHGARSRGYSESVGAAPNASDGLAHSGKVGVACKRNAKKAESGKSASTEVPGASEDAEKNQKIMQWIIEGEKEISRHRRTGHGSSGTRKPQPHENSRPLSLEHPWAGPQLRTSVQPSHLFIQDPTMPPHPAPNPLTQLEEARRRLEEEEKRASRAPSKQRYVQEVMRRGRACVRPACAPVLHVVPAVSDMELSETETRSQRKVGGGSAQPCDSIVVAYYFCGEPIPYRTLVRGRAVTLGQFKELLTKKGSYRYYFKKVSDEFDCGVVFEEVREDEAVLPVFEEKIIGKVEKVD
UniProt P35222, whole entry: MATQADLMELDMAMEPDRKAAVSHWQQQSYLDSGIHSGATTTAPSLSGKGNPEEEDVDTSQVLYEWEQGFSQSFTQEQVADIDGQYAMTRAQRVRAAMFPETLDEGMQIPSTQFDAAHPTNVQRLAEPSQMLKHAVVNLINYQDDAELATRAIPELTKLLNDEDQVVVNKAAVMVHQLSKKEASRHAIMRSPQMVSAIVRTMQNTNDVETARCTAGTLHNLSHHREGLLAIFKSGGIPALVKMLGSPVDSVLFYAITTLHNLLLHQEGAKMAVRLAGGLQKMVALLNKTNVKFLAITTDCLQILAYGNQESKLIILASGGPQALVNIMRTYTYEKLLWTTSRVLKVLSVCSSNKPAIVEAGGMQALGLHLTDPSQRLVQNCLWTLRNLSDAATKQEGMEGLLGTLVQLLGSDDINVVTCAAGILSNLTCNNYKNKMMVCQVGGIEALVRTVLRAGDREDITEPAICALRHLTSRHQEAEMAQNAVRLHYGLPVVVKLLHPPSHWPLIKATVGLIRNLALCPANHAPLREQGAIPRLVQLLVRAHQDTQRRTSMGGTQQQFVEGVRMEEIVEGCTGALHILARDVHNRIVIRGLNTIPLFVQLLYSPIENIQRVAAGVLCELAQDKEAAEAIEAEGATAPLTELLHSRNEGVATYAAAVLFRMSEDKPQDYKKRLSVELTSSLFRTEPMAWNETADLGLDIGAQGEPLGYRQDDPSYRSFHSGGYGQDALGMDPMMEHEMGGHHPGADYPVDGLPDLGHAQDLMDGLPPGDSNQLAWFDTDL

target: Myc-tagged Axin (human (cDNA from HT29 cells)) (UniProt O15169); test: co-IP

| binding | Substance |
| --- | --- |
| binds | N-terminal HA-tagged Y30F mutant β-catenin (from UniProt P35222 1-781) |
| binds | N-terminal HA-tagged wild-type β-catenin (from UniProt P35222 1-781) |
| binds | Ser45 phosphorylated β-catenin (endogenous, HEK293T cells) (from UniProt P35222 1-781) |
| binds | β-catenin (endogenous, HEK293T cells) (from UniProt P35222 1-781) |

target: T1, Flag-tagged wild-type Nek10 (human) (UniProt Q6ZWH5); test: co-IP
T1 sequence: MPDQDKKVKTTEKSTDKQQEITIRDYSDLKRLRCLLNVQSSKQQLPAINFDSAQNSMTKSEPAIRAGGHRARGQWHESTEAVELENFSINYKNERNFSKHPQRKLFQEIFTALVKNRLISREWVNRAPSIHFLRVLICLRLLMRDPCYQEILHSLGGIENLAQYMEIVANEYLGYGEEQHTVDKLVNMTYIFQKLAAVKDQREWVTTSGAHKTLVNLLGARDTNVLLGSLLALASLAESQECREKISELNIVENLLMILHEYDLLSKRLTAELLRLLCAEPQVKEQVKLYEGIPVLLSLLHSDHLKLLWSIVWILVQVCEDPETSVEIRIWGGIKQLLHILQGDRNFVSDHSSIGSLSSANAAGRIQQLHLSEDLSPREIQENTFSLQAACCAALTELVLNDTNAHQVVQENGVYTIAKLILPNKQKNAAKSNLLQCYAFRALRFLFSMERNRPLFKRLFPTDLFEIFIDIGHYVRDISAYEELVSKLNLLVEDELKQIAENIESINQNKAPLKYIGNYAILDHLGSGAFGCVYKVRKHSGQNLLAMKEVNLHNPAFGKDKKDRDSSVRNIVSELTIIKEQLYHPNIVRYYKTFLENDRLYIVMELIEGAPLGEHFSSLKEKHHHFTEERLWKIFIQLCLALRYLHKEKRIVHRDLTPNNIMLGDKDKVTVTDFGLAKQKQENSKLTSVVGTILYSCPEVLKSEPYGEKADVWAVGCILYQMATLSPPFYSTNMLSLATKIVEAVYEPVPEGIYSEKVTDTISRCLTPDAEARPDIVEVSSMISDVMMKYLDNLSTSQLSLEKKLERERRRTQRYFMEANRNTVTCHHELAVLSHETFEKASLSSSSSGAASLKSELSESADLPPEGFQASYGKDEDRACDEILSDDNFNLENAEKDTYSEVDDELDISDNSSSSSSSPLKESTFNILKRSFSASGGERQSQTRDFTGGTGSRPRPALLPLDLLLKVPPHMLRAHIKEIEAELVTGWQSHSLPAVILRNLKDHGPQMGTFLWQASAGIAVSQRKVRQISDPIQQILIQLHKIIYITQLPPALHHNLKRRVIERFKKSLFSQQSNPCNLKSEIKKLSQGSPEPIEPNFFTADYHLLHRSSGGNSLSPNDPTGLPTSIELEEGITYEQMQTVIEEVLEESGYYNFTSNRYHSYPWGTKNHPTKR

| binding | Substance |
| --- | --- |
| binds weakly | Myc-tagged Axin (from UniProt O15169 1-862) |
| no binding | N-terminal HA-tagged wild-type β-catenin (from UniProt P35222 1-781) |
